Experimental findings from article doi:10.1101/386631 are described below.

Protein sequences, listed by entry. Tags and fused reporters are not part of them. Residues count along the entry.
UniProt P29323, residues 19-1055: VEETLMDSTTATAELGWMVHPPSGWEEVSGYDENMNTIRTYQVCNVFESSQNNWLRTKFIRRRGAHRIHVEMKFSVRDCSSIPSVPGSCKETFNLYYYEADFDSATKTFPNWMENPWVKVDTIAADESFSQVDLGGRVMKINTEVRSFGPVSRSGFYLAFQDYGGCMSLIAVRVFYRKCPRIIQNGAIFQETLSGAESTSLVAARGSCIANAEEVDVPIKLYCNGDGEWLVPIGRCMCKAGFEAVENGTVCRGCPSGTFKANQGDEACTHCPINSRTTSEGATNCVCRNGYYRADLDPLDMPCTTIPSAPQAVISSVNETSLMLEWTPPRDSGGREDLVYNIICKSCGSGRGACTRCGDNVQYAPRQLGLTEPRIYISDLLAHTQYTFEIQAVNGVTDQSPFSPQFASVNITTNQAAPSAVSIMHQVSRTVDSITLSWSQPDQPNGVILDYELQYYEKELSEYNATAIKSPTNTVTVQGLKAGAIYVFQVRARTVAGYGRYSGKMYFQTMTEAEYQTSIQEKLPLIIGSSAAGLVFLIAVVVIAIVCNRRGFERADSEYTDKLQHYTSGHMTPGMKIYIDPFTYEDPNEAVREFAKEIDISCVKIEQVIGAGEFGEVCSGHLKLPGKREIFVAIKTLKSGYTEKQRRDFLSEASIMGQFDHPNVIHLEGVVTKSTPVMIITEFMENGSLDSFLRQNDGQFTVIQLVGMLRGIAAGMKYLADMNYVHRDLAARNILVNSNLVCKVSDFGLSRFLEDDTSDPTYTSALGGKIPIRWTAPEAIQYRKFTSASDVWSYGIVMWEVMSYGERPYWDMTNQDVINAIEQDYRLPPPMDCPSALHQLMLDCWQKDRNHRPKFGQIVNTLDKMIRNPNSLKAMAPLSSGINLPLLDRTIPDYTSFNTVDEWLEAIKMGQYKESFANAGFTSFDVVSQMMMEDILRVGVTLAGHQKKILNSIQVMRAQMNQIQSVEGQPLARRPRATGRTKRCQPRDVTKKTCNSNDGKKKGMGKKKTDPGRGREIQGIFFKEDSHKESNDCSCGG
UniProt P27986: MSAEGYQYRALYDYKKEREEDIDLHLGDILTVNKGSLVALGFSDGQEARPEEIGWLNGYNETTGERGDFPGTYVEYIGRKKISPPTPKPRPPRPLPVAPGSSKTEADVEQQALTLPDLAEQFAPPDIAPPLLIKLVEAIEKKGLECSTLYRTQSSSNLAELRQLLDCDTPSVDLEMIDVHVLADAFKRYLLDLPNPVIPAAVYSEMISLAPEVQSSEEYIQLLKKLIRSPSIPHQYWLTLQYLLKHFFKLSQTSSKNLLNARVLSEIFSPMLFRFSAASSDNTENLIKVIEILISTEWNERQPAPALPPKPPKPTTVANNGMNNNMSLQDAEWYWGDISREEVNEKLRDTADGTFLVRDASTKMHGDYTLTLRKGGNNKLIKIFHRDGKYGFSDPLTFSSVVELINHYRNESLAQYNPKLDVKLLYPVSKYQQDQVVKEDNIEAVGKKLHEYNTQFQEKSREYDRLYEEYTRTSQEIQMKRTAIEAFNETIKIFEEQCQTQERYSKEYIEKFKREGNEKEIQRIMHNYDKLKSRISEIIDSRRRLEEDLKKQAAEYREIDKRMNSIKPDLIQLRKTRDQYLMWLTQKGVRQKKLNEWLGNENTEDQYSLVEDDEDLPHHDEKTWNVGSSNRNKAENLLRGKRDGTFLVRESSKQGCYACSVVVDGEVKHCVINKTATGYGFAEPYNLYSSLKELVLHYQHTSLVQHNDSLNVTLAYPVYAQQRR
UniProt Q96T51: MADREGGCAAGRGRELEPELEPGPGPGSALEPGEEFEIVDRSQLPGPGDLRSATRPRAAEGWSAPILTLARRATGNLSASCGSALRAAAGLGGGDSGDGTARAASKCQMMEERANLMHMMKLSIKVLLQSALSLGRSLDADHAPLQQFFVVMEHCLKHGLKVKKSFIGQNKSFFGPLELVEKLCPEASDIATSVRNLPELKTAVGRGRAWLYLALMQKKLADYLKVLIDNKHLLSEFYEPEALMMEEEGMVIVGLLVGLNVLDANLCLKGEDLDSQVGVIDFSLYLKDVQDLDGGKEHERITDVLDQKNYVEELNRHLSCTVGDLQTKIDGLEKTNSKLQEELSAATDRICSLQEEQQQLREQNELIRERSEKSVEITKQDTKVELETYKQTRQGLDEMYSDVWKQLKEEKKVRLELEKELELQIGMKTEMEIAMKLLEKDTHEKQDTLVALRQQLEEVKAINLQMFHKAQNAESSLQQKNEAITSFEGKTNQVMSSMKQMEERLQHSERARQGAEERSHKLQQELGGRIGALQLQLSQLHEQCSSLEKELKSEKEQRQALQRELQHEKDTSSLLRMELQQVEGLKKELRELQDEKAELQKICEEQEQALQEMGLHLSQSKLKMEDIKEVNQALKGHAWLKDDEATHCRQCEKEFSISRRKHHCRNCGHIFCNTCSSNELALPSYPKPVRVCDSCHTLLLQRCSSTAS
UniProt Q9H3S7: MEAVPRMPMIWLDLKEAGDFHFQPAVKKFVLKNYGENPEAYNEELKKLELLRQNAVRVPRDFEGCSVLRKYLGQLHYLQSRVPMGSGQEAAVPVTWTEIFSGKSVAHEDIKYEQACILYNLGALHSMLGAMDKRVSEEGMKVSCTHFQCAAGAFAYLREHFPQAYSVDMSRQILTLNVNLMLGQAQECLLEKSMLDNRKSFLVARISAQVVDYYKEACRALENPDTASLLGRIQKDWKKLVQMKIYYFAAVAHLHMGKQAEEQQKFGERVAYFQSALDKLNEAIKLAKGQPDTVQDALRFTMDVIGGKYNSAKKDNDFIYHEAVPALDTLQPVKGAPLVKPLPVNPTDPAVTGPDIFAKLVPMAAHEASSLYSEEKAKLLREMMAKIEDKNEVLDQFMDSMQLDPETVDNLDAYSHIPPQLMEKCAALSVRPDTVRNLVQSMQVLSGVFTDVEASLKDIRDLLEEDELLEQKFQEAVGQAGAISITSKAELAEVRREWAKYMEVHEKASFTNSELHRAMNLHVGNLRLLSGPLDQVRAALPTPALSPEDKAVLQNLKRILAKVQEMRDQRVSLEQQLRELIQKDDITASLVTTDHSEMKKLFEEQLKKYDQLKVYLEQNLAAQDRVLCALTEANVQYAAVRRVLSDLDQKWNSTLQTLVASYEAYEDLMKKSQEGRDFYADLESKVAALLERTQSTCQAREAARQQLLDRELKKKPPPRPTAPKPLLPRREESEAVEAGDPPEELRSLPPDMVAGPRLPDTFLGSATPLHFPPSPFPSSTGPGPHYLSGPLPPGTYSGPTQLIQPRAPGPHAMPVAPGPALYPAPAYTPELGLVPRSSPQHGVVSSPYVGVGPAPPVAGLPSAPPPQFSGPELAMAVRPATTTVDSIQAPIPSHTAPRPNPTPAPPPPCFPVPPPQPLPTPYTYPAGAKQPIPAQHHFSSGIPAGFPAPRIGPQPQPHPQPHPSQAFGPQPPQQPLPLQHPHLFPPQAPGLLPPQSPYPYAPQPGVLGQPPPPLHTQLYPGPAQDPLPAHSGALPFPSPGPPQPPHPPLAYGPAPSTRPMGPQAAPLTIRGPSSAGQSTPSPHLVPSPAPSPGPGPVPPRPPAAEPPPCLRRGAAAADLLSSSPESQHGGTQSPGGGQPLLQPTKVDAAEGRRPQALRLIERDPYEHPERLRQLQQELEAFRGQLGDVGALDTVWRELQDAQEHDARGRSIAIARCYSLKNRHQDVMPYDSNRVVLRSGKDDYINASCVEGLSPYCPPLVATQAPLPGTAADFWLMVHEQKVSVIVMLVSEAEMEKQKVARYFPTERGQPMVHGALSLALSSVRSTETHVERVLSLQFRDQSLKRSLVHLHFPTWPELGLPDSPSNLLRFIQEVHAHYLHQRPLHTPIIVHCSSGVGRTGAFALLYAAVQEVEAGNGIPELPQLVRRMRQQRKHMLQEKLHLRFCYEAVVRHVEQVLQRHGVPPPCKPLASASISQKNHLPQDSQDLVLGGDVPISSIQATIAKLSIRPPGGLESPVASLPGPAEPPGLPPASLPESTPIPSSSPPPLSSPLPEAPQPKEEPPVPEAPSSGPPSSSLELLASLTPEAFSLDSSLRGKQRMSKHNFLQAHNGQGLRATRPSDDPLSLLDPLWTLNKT
UniProt O43639: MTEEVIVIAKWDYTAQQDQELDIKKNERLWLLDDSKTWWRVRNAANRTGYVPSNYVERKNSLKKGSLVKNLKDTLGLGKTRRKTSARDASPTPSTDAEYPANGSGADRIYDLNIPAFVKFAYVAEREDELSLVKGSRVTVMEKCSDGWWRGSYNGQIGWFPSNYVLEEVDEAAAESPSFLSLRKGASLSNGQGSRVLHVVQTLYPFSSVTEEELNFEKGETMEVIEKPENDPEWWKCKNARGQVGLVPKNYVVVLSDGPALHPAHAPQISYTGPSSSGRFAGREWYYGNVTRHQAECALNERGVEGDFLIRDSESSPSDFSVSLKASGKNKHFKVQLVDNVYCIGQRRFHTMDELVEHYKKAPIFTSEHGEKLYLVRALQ
UniProt P46108: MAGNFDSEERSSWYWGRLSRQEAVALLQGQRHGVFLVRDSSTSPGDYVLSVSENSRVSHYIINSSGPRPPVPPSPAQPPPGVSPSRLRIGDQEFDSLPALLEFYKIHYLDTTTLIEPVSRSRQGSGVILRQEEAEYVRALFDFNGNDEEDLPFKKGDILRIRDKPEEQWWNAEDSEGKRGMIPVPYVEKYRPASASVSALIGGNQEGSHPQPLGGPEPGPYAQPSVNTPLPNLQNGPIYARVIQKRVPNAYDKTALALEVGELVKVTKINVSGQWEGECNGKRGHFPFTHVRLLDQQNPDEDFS

Results are given in words; binding and its absence hold for the method and conditions named. Binding seen in cells or lysates may run through a third protein. These calls come from enrichment with a bait or labelling near it, and not all partners need be listed.

This assay concerns the target EphB2-BirA*-FLAG (UniProt P29323). Nature of the assay: proximity labelling.
Consider Pik3r1 (from UniProt P27986 1-724), for which the binding result is recorded as “binds”.
To “RUN and FYVE domain-containing protein 1 (RUFY1) (from UniProt Q96T51 1-708)” belongs “binds”; to “HD-PTP (endogenous, HEK293) (from UniProt Q9H3S7 1-1636)”, “binds”; to “Nck adaptor protein NCK2 (from UniProt O43639 1-380)”, “binds”.
Consider CRK (from UniProt P46108 1-304), for which the binding entry was “binds”.
